System: tyrosinase enzyme
Test: Inhibition percentage analysis at the tyrosinase enzyme electrode containing gold nanoparticles in a flow system
Format: biochemical
Conditions: for contact time at which the highest inhibition percentage is exhibited: agricultural chemical about 0.01 ppb; for Detection limit: gold nanoparticle/glass carbon electrode, 1 mM catechol, the present invention

Structure (SMILES) | contact time at which the highest inhibition percentage is exhibited | Detection limit [ppt]
O=C(O)COc1ccc(Cl)cc1Cl [2,4-dichlorophenoxyacetic acid] | about 200 seconds | 0.55
CCNc1nc(Cl)nc(NC(C)C)n1 [atrazine] | about 200 seconds | 0.35

Source: US7935233B2, “Tyrosinase enzyme electrode and production method thereof” (Gwangju Institute of Science and Technology, priority 2007, dated 2011)
